Source: EP3092214B1, “NITROSAMINE/NITRITE INHIBITION IN TERTIARY ALKYLAMINE OXIDE COMPOSITIONS” (EOC Surfactants N.V., priority 2014, dated 2015)

Experiment: Synthesis tests of cocamidopropylamine oxide with candidate inhibitors: amido-amine residual content by UV-HPLC
Conditions: additive 0,1% by weight on amido-amine

Compound | Content of amido-amine (Temp 50 °C) | Content of amido-amine (Temp 70 °C)
O=P(O)(O)CN(CCN(CP(=O)(O)O)CP(=O)(O)O)CCN(CP(=O)(O)O)CP(=O)(O)O [DTPMP, diethylenetriamine penta(methylene phosphonic acid)] | 0,29% | 0,14%
O=C(O)CN(CCN(CC(=O)O)CC(=O)O)CCN(CC(=O)O)CC(=O)O [DTPA Na, diethylene triamine pentaacetic acid] | – | 0,16%
O=C(O)CN(CCN(CC(=O)O)CC(=O)O)CC(=O)O [EDTA, ethylenediaminetetraacetic acid] | 0,30% | 0,23%
